No constants are given. Whether binding was seen depends on the method and setting. Some results given as binding are weak or reduced against the parent protein; the word gives no strength.

Sequences of proteins named here, by UniProt entry; tags and fusion partners are left off. A change or cut given only in a name is not applied to a line headed by its entry.
UniProt P56856: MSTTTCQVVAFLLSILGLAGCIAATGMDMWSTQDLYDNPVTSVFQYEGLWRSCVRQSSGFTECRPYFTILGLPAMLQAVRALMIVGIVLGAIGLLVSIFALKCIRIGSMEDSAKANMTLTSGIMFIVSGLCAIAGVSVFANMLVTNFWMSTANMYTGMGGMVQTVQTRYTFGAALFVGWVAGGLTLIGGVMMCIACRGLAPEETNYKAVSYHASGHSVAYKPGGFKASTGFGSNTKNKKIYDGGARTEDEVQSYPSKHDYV

For the experiment, the target named is human CLDN-18.2 (human, UniProt P56856 1-261). Description: flow cytometry on NUGC4-CLDN-18.2 cells, fluorescent secondary antibody. (In flow cytometry, cells or beads pass a laser one at a time.)

B1: JS012-Chi2-hu2-v3-2a (antibody, human IgG1, kappa, V domains shown)
VH: EVQLVESGGGLVQPGGSLRLSCAASGFTLNNFGMHWVRQAPGKGLEWVSSISSGSGTIYYADSVKGRFTISRDNPKNSLYLQMNSLRAEDTAVYYCARAYYGNGFSFWGQGTLVTVSS
VL: DIVMTQSPDSLAVSLGERATINCKSSQSLLNSGNQKNYLTWYQQKPGQPPKLLIYWASTRESGVPDRFSGSGSGTDFTLTISSLQAEDVAVYYCQNVYSYPLTFGQGTKLEIKR
notes: also called JS107-5
For B1, the binding entry was “binds”.
